Some of these results come from one statement about several compounds together.
Tests used:
[1] = tested on: excised Arabidopsis nodes; assay: Axillary bud outgrowth assay in Arabidopsis stem sections; type: in vivo; settings: 100 μM inhibitor, 1 μM NAA; Col-0; FIG. 5
Procedure: Axillary bud outgrowth assay in Arabidopsis stein sections—The assays were performed essentially as described (40) with the following modifications. Small Petri dishes (50 mm diameter, 20 mm depth) were filled with 10 ml of ATS (39) supplemented with 1% agar and 1% sucrose. Inhibitors and α-naphthalene acetic acid (NAA) were added to the agar before pouring to give 100 μM and 1 μM, respectively. Thus, when the central strip was cut out of the agar, both the apical and basal media contained both NAA and inhibitor. Any nodes in which the apical end had curled out of the media or which bud length was less than 2 mm at the end of the experiment were discounted. Measurement of the shoot length was performed every 24 hours. For each assay a logistic curve was fitted using Genstat (10th edition, VSN international) with the fitcurve directive and the lag phase was calculated by extrapolating the linear part of the curve and the initial plateau (see supplementary methods). The x value of where these two lines intersected represented the lag phase.
A logistic curve, y=A+C/(1+e^−B(t−m)), was fitted to the data for each shoot using GenStat (10th edition). The lag phase was then calculated using the equation m−(2/B) which effectively gave the t value (time) of the intercept of the two extrapolated lines from the linear part of the curve and the initial plateau. […]

Protein sequences, listed by entry. Tags and fused reporters are not part of them. Residues count along the entry.
UniProt O24023, 17-605: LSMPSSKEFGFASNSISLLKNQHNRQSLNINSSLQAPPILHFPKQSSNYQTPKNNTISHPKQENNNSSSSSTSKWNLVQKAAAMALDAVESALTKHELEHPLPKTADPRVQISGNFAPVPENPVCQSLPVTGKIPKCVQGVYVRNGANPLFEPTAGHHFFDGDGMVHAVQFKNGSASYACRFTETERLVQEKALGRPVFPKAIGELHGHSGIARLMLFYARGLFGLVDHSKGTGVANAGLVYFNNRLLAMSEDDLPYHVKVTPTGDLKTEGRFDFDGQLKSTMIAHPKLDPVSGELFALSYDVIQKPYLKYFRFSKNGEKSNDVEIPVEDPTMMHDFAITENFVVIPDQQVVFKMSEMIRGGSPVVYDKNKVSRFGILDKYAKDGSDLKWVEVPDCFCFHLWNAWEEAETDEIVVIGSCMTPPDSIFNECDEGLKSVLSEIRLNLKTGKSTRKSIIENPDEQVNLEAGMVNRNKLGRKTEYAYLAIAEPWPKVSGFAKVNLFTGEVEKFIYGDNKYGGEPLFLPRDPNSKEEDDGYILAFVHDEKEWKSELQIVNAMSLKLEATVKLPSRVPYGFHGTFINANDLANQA

[2] = biological target: T1, LeNCED1 (Solanum lycopersicum, UniProt O24023); assay: In vitro NCED enzyme assay (recombinant LeNCED1 cell-free extract, HPLC, 9′-cis-neoxanthin substrate); type: biochemical, tomato; settings: 100 μM
T1 construct: made in house; host or cells: E. coli Rosetta (DE3); crude cell-free extract
Procedure: In vitro NCED enzyme assay—We over-expressed LeNCED1 in E. coli, as an N-terminal His6-fusion protein (supplemental methods). Cell-free extract containing recombinant LeNCED1 was prepared in 100 mM bis-tris buffer (pH 6.7). 15 μl extract was pre-activated by addition of iron(II) sulphate (20 mM, 1 μl) and ascorbic acid (20 mM, 1 μl) on ice for 2 min, prior to use. This aliquot of enzyme was then added to an assay (150 μl total volume) containing 100 mM bis-tris buffer (pH 6.7), 0.05% v/v Triton X-100, 1.0 mg/ml catalase, and 3 μg 9′-cis-neoxanthin. The 9′-cis-neoxanthin substrate was prepared as described in supplemental methods. The enzyme assay was incubated for 15 min in the dark at 20° C. […] NCED inhibition assays contained 1-100 μM inhibitor; inhibition was calculated from the product formation after 15 min, compared to a control assay with no inhibitor present. […]
Specificity of inhibition in vitro for tomato genes LeNCED1 and LeCCD1a—In order to screen the inhibitors against enzymes which cleave carotenoids at the 9,10 position, we used the recombinant tomato LeCCD1a protein (44), because this type of enzyme can be studied using an in vitro colourimetric assay with β-apo-8′-carotenal as substrate (37). […] For this enzyme, the cleavage reaction was monitored by C18 reverse phase HPLC, using 9′-cis-neoxanthin as substrate.

Compound | effect on timing of bud outgrowth (in words) [1] | inhibitory activity against LeNCED1 relative to abamine [2]
COc1ccc(CC(=O)N(O)Cc2ccc(F)cc2)cc1 [Compound D4, N-(4-fluorobenzyl)-4-methoxyphenylacetyl hydroxamic acid] | significantly (P<0.05) advanced the timing of bud outgrowth | 1.5-2 fold
O=C(Cc1ccc2c(c1)OCO2)N(O)Cc1ccc(F)cc1 [Compound D7, N-(4-fluorobenzyl)-3,4-methylenoxyphenylacetyl hydroxamic acid] | – | 1.5-2 fold
